Isolated mass data for two substances are collected here from patent publication US5059653 (dated 1991).

A short description of data set [1]: general procedure: Boc solid-phase peptide synthesis; benzhydrylamine resin; diisopropylcarbodiimide. The following applies: whole synthesis, scale 0.5 mmole, one disulfide bridge, sequence written open.
Data set [2] is described as follows: general procedure: Boc solid-phase peptide synthesis; benzhydrylamine-polystyrene resin; diisopropylcarbodiimide. The following applies: whole synthesis, scale 0.5 mmole, one disulfide bridge, sequence written open.

Regarding “D-Phe-Cys-Tyr-D-Trp-CH2 -NH-Lys-Val-Cys-Thr-NH2”, in data set [1], the isolated mass was 63.4 mg. Regarding “D-Phe-Cys-Tyr-D-Trp-Lys-CH2 NH- Val-Cys-Thr-NH2”, the isolated mass in data set [2] is listed as 78 mg.
